# Data from PubChem BioAssay AID504850 (National Center for Advancing Translational Sciences (NCATS), 2011).
# In all, about 2,300 compounds went through this assay and about 1,200 (52%) were called active. So high a share suggests a set chosen from earlier hits. Inconclusive means that the source gave no clear call. Such entries were picked first, then a sample of the others. Calls come from the whole dose curve; as a rule, active = well fitted inhibition curve with a large enough effect; inconclusive = small, poorly fitted or top-dose-only effect, or effect the other way; inactive = no such curve, though single readings can be large or run the other way. A potency beside an inconclusive call is a rough fit, not a confirmed value.
# Test: Confirmation screen for delayed death inhibitors of the malarial parasite plastid, 48 hour incubation; note: nearly all actives have a fitted effect of over 65% in size
# Conditions: P. falciparum-infected erythrocytes, luciferase growth; series mostly up to 28.7 µM; activity change, negative = inhibition: at the top concentration
# In short: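 Single-generation (48 h, 37 C) exposure of integrated firefly luciferase-reporter P. falciparum in red cells, 0.1% parasitemia at 2% hematocrit, Albumax-supplemented RPMI. Falling luciferase signal marks parasite growth inhibition.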
# % is set by controls: 0 for no effect and ±100 for the full control effect; potency is the fitted concentration of half-maximal effect.
SMILES,Potency,"activity change, negative = inhibition"
O=S(=O)(c1ccc(OCc2ccc(Br)cc2)cc1)N1CCOCC1,active: 11.2 µM,–
COc1ccc(CCNC(=O)C2CCN(S(=O)(=O)c3ccc(OC)c(OC)c3)CC2)cc1OC,"inconclusive: 15.8 µM [inhibitor, partial curve, poor fit]",–
O=C(Nn1c(COc2ccccc2)nc2ccccc2c1=O)C(Cl)(Cl)Cl,–,inactive: -23.8%
COc1ccc(CCNC(=O)CCC(=O)NC2CCCC(C)C2C)cc1OC (centres undefined),"inconclusive: 17.8 µM [inhibitor, partial curve, poor fit]",–
NC12CC3CC(C1)CC(CO)(C3)O2,"inconclusive: 8.91 µM [inhibitor, partial curve, poor fit]",–
O=C(N/N=C/c1ccc([N+](=O)[O-])cc1)c1cccc(N2CCCC2=O)c1,active: 11.2 µM,–
Nc1nc(N)nc(-c2cc([N+](=O)[O-])ccc2O)n1,–,inactive: -11.4%
COc1ccc(C(=O)Nc2nnc(S(=O)(=O)N3CCOCC3)s2)cc1,"inconclusive: 3.55 µM [inhibitor, partial curve, poor fit]",–
CC(C)c1ccc(/C=C/C(=O)NC(=S)NN2CCOCC2)cc1,–,inactive: -43.1%
O=C(O)/C=C/C(=O)NNC(=O)c1ccc(Cl)cc1Cl,"inconclusive: 15.8 µM [inhibitor, single point]",–
Cc1sc(NC(=O)c2c(F)cccc2F)nc1-c1ccccc1,–,inactive: -7.17%
Cc1ccnc(NCc2ccc(Cl)cc2)c1,–,inactive: 18%
COc1ccc(NC2CCCN(C(=O)CCc3ccncc3)C2)cc1OC (centres undefined),"inconclusive: 14.1 µM [inhibitor, partial curve, poor fit]",–
O=C(O)c1ccccc1N/N=C/c1cc(Br)cc(Br)c1O,"inconclusive: 14.1 µM [activator, partial curve]",–
CCOc1ccccc1OCCC(=O)N1CCN(S(=O)(=O)c2ccccc2[N+](=O)[O-])CC1,"inconclusive: 15.8 µM [inhibitor, single point]",–
O=C(C1CCC(=O)N1Cc1ccccc1Cl)N1CCN(c2cccc(Cl)c2)CC1 (centres undefined),"inconclusive: 3.98 µM [inhibitor, partial curve, poor fit]",–
COc1ccc([N+](=O)[O-])c(S(=O)(=O)c2ccc(Cl)cc2)n1,–,inactive: -12.9%
CCc1ccccc1-n1nnnc1SCC(=O)Nc1cc(C)on1,"inconclusive: 15.8 µM [inhibitor, single point]",–
O=C(CCN1C(=O)C2CC=C(Cl)CC2C1=O)NCc1ccccc1 (centres undefined),"inconclusive: 11.2 µM [inhibitor, partial curve, poor fit]",–
O=S(=O)(c1ccc(F)c(Cl)c1)N1CCN(C/C=C/c2ccccc2)CC1,"inconclusive: 11.2 µM [inhibitor, partial curve, poor fit]",–
Cc1cc(-c2ccc(C(C)C)c(S(=O)(=O)NCc3ccco3)c2)on1,"inconclusive: 15.8 µM [inhibitor, single point]",–
Cc1ccc(S(=O)(=O)N2CCN(C(=O)c3cc(S(=O)(=O)N(C)C)ccc3N3CCCC3)CC2)c(C)c1,active: 12.6 µM,–

# In another format: 2 of the compounds above.
SMILES	Potency	activity change, negative = inhibition
O=C(N/N=C/c1ccc([N+](=O)[O-])cc1)c1cccc(N2CCCC2=O)c1	active: 11.2 µM	–
Nc1nc(N)nc(-c2cc([N+](=O)[O-])ccc2O)n1	–	inactive: -11.4%

# (continued)

SMILES,Potency,"activity change, negative = inhibition"
O=C(NCCCn1ccnc1)C(=O)NCC1OCCN1S(=O)(=O)c1ccc(F)cc1 (centres undefined),–,inactive: -13.4%
Cc1cc(C)nc(SCC(=O)c2ccc(C)c(C)c2)n1,"inconclusive: 14.1 µM [inhibitor, single point]",–
COc1ccc(NC(=O)NC2CCCCCCC2)c(OC)c1,"inconclusive: 7.08 µM [inhibitor, partial curve, poor fit]",–
Cc1cc(C)c2[nH]c(C(=O)N3CCC(n4nccc4NC(=O)C4CC4)CC3)c(C)c2c1,active: 12.6 µM,–
CSc1ccc(CNc2cccc3ccccc23)cc1,–,inactive: -25.2%
Cc1nnsc1C(=O)Nc1ccccc1,–,inactive: 14.9%
O=C(NCc1ccc2c(c1)OCO2)c1nc(S(=O)(=O)Cc2ccccc2)ncc1Cl,–,inactive: -8.24%
C#CCOCCOCCOCCNc1nc(N2CCN(C(=O)Cn3cc(CC(C)O)nn3)CC2)nc(N2CCN(C(=O)[C@H](C)n3cc(CCCN=C(N)N)nn3)CC2)n1 (some centres undefined),–,inactive: -25.6%
Cc1nn(CCC(=O)NCc2ccc(N(C)C)cc2)c(=O)c2nn(-c3ccccc3)c(C)c12,"inconclusive: 11.2 µM [inhibitor, partial curve]",–
CS(=O)(=O)N1CCN(c2ccc(NC(=O)c3ccc([N+](=O)[O-])o3)cc2)CC1,active: 11.2 µM,–
COc1cc(CNc2cccc(C(=O)O)c2)cc(Br)c1OCC(=O)NC(C)(C)C,"inconclusive: 15.8 µM [inhibitor, partial curve, poor fit]",–
O=C(NC1CCCc2c1cnn2-c1ccccc1F)c1ccccn1 (centres undefined),"inconclusive: 12.6 µM [inhibitor, partial curve, poor fit]",–
CC(C)(C)Sc1ccc([N+](=O)[O-])cc1C(=O)Nc1ccncc1,"inconclusive: 3.16 µM [inhibitor, full curve]",–
Cc1ccc(C)c(OCCCN2CCc3ccccc3C2)c1,"inconclusive: 15.8 µM [inhibitor, single point]",–
CC[C@H]1OC(=O)[C@H](C)[C@@H](O[C@H]2C[C@@](C)(OC)[C@@H](O)[C@H](C)O2)[C@H](C)[C@@H](O[C@@H]2O[C@H](C)C[C@H](N(C)C)[C@H]2O)[C@](C)(O)C[C@@H](C)CN(C)[C@H](C)[C@@H](O)[C@]1(C)O,active: 14.1 µM,–
O=C(/C=C/c1ccccc1)c1ccc2c(c1)OCCCCO2,"inconclusive: 5.01 µM [activator, partial curve]",–
Cn1cc([N+](=O)[O-])c(C(=O)Nc2ccc(C3CCCCC3)cc2)n1,–,inactive: -26.5%
Cn1ncc2c(Nc3ccc(-c4ccccc4)cc3)ncnc21,"inconclusive: 25.1 µM [inhibitor, single point]",–
Cc1nn(C(C)C(=O)Nc2ccccc2Cl)c(=O)c2nn(-c3ccccc3)c(C)c12 (centres undefined),active: 14.1 µM,–
CN(CCNC(=O)C1CCC(=O)N(Cc2cccc(F)c2)C1)CCc1ccccc1 (centres undefined),"inconclusive: 10 µM [inhibitor, partial curve]",–
O=C(Cc1n[nH]c(=O)c2ccccc12)OCc1c(Cl)cccc1Cl,–,inactive: 24.5%
Cc1cc(=O)oc2ccc(OCC(=O)N3CCc4ccccc43)cc12,active: 10 µM,–
